In all, about 360,000 compounds went through this assay and about 7,500 (2.1%) were called active. The inconclusive results got no clear call from the source; some entries with a clear call stand among them for comparison. Calls follow the shape of the dose curve; as a rule, active = well fitted inhibition curve with a large enough effect; inconclusive = small, poorly fitted or top-dose-only effect, or effect the other way; inactive = flat fitted curve, though single readings scatter. Potencies of inconclusive entries are doubtful fits and often do not repeat.
Experiment: Nrf2 qHTS screen for inhibitors; also: nearly all actives have a fitted effect of over 60% in size
Details: A549 ARE-Fluc reporter, luciferase luminescence, 18-24 h; series mostly up to 46 µM
Method in brief: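 Cells were seeded and rested 2 h, then exposed to compounds for 18-24 h. CellTiter-Fluor was read first as a viability measure. BugLite was added 15 min before the final luminescent read of ARE-luciferase activity in A549 cells.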
In the case of `C=CCN1C(=O)C2(NC(=O)c3ccccc3N2)c2ccccc21` (stereo not drawn), the Potency is reported as inconclusive: 20.6 µM [activator, single point].
In the case of `CNc1nc(SCC(=O)Nc2ccc(Cl)c(Cl)c2)nc(N2CCOCC2)n1`, the Potency is reported as inconclusive: 2.06 µM [falling, partial curve].
With `CC1(C)Cc2ccccc2C(/C(=N/O)C(N)=O)=N1` the Potency was “inactive”.
In the case of `CCOC(=O)c1sc2nc(-c3ccccc3)ccc2c1N`, the Potency is reported as inconclusive: 16.4 µM [activator, partial curve].
With `CCOC(=O)c1c(C)oc2ccc(OC(=O)N3CCOCC3)cc12` the Potency was inconclusive: 32.6 µM [falling, partial curve, poor fit].
With `Cc1ccc2nsnc2c1S(=O)(=O)N1CCN(Cc2ccc3c(c2)OCO3)CC1` the Potency was inconclusive: 29.1 µM [falling, single point].
For `COc1ccc(CN2C(=O)NC(C)(c3ccc(C)cc3)C2=O)cc1F` (stereo not drawn), the Potency was inconclusive: 32.6 µM [falling, single point].
In the case of `COC(=O)c1cnn(-c2cc(Oc3ccccc3)ncn2)c1N`, the Potency is reported as inconclusive: 9.2 µM [activator, partial curve, poor fit].
In the case of `CCOC(=O)CSc1nc2cc(OC)ccc2cc1C#N`, the Potency is reported as inconclusive: 23.1 µM [activator, single point].
In the case of `Cc1ccc(-n2c(C)cc(C(=O)COC(=O)C3=NNC(=O)CC3)c2C)cc1`, the Potency is reported as inconclusive: 29.1 µM [falling, single point].
For `COc1c(C)cc(Br)cc1C(=O)Nc1ccccc1N1CCN(C(=O)c2ccccc2)CC1`, the Potency was inconclusive: 29.1 µM [falling, single point].
With `CC1CCCN(S(=O)(=O)c2ccc(C(=O)Nc3ccccc3-c3nc4ccccc4[nH]3)cc2)C1` (stereo not drawn) the Potency was “inactive”.
In the case of `Cc1cccc(C)c1N(CC(=O)Nc1cc(Cl)ccc1Oc1ccccc1)S(C)(=O)=O`, the Potency is reported as inconclusive: 25.9 µM [falling, single point].
In the case of `COc1ccc(CCN2C(=O)c3[nH]nc(-c4ccccc4O)c3C2c2ccc(C)cc2)cc1OC` (stereo not drawn), the Potency is reported as inconclusive: 18.4 µM [falling, single point].
For `COc1ccc(S(=O)(=O)N2CCN(Cc3ccccc3[N+](=O)[O-])CC2)cc1`, the Potency was inconclusive: 32.6 µM [falling, single point].
With `Cc1cc(C)nc(NS(=O)(=O)c2ccc(N/C=C\C(=O)c3ccc(Cl)cc3)cc2)n1` the Potency was inconclusive: 9.2 µM [falling, partial curve].
In the case of `COCc1cc(/C=N\NC(=O)Cc2ccc(OC)cc2)ccc1OC`, the Potency is reported as “inactive”.
With `Cc1ccc(-c2[nH]n3c(=O)c4c(nc3c2C)CCCC4)cc1` the Potency was “inactive”.
Potency is read from the fitted curve at half-maximal effect.
